Laboratory results published in paper PMC2670505.
No constants are given. Whether binding was seen depends on the method and setting. In cells and extracts the contact can be indirect. Some binding calls cover weakened binding; strength is not graded here.

Target: T1, H3K27me3 peptide
T1 sequence (peptide, trimethyl-lysine at K27): LATKAARKSAPATGGC
Experiment: pull-down; H3K27 or H3K27me3 peptides coupled to SulfoLink Coupling Gel; equal amounts of 35S-methionine-labelled in vitro translated wild-type and mutant LHP1; SDS-PAGE, storage phosphor screen; only the target purified

binding: binds
B1: LIKE HETEROCHROMATIN PROTEIN 1 (LHP1), wild type (protein, UniProt Q946J8 1-445)
chain: MKGASGAVKKKPQVLNEAGEAETAVETVGESRKISGDGGFGSDDGGGGGGGGSGESILREIGDDRPTEDGDEEEEEDEDEDDGGDEEDEEGEGEGGQEERPKLDEGFYEIEAIRRKRVRKGKVQYLIKWRGWPETANTWEPLENLQSIADVIDAFEGSLKPGKPGRKRKRKYAGPHSQMKKKQRLTSTSHDATEKSDSSTSLNNSSLPDIPDPLDLSGSSLLNRDVEAKNAYVSNQVEANSGSVGMARQVRLIDNEKEYDPTLNELRGPVNNSNGAGCSQGGGIGSEGDNVRPNGLLKVYPKELDKNSRFIGAKRRKSGSVKRFKQDGSTSNNHTAPTDQNLTPDLTTLDSFGRIARMGNEYPGVMENCNLSQKTKIEELDITKILKPMSFTASVSDNVQEVLVTFLALRSDGKEALVDNRFLKAHNPHLLIEFYEQHLKYNRTP
modifications: labelled with L-[35S]methionine
